Source: PubChem BioAssay AID504786 (Drosophila RNAi Screening Center, 2011)

Test: 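Knock-downs reducing HIF reporter induction by the iron chelator DFO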 (primary screen)
Cell system: Drosophila S2 cells with a stable HIF luciferase reporter
Reagents: long dsRNA against Drosophila genes, about 0.2 µg dsRNA per well of a 384-well plate
Time to read-out: three days of knock-down, then 20 h of DFO before reading
Conditions: desferrioxamine (DFO) at 100 µM, an iron chelator that mimics hypoxia, for 20 h
Detection: 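Firefly luciferase driven by the mouse ldh-a hypoxia-response element, measured after 20 h of 100 µM DFO; z-scores per plate, higher means more signal lost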
Scale: z-score: higher = stronger loss of HIF reporter signal
The screen tested about 21,000 reagents; this is an unselected part of those with a known target gene and a result. 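Primary screen; positive scores mean lost reporter signal, so the sign may be inverted from the usual convention.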 Names joined by + are all predicted targets of the reagent. No sequences are given here.

target	amplicon	z-score, replicate 1	z-score, replicate 2	z-score, replicate 3	z-score, replicate 4
wor	DRSC03637	-0.3	-0.4		
Rchy1	DRSC02542	1.8	0.3		
CG31097	DRSC14666	-0.4	-0.8		
Hdc	DRSC07439	-0.4	-0.6		
CG5347	DRSC19942	-0.2	0		
mei-38	DRSC18564	-0.2	0.3		
Dhx15	DRSC06036	0.8	2.1		
Adgf-A2	DRSC09507	-0.1	0.3		
CG1986	DRSC18197	-0.2	0.2		
D12	DRSC03311	-0.3	-0.2		
Acp1	DRSC01854	-0.1	-0.6		
uri	DRSC04111	-0.3	-0.4		
CG18210 (retired record)	DRSC19089	-0.3	1.2		
CG18210 (retired record)	DRSC19795	-0.3	-0.5		
CG30259	DRSC04164	-0.1	-0.4		
CG30259	DRSC04165	-0.3	-0.3		
CG17593	DRSC00504	-0.1	-0.1		
CG4984 + CG4975	DRSC06907	-0.2	-0.1		
CG4984 + CG4975	DRSC06908	-0.3	-0.5		
DCTN4-p62	DRSC06101	-0.2	0.3		
Osi20	DRSC12568	-0.3	0.2		
CG15422	DRSC00436	-0.2	-0.4		
CG9550	DRSC03262	-0.3	-0.6		
Fer2LCH	DRSC16672	-0.5	-0.5		
TwdlT	DRSC16677	-0.2	-0.7		
Mal-B1	DRSC02416	-0.1	-0.2		
dpr19	DRSC02237	-0.1	-0.3		
CG14695	DRSC14918	-0.1	-0.4		
CG6280	DRSC06972	0.3	0.3		
mbm + CG11555	DRSC00315	-0.3	0.8		
CG10936	DRSC05669	-0.9	-0.3		
CG10936	DRSC05670	-0.8	-0.4		
CG10936	DRSC06018	-0.3	-0.3		
mip130	DRSC18575	0.2	-0.5		
Ir94g	DRSC15231	-0.2	-0.4		
CG2972	DRSC18250	0	0.8		
CG7376	DRSC10829	-0.2	-0.1		
rod	DRSC17047	-0.3	0		
Lcp4	DRSC07458	-0.3	-0.6		
CG4074 + CG4186	DRSC11753	-0.3	-0.4		
CG31441	DRSC15723	-0.3	-0.3		
CG5321	DRSC19940	-0.3	0.4		
Lip3	DRSC16727	-0.4	-0.4		
CG1143	DRSC08188	-0.1	-0.3		
Tsp42Ee	DRSC05947	-0.2	-0.1		
PHDP	DRSC04635	-0.4	0.2		
CG6621	DRSC16076	-0.3	-0.2		
CG5245	DRSC15750	-0.4	-0.5		
CG3734	DRSC15509	-0.9	0.3		
CalpC	DRSC19873	-0.3	0.6		
CG32568	DRSC19913	-0.4	-0.2		
Cyp4ac2	DRSC03303	-0.1	-0.7		
Pde11	DRSC02028	-0.1	0		
Pde11	DRSC02460	0.1	0.6		
CAH16	DRSC15371	0.1	0.4		
HmgZ	DRSC03888	0.9	0.7		
HmgZ	DRSC04620	0.2	0.2		
Hil	DRSC05989	-0.2	-0.4		
Hil	DRSC06395	-0.4	-0.3		
gcl	DRSC07623	-0.3	-0.5		
CG6638	DRSC10680	-0.3	-0.4		
tio	DRSC03739	-0.3	-0.4		
CG11714	DRSC09857	-0.3	-0.5		
CG16717	DRSC10221	-0.4	-0.9		
ric8a	DRSC18093	-0.3	0		
Non1	DRSC05954	0	1.8		
CG5235	DRSC10494	-0.1	-0.1		
CG9372	DRSC11068	0	0		
CG42260	DRSC03953	-0.6	-0.2		
CG42260	DRSC04172	-0.3	1.2		
CG42260	DRSC04385	-0.4	-0.5		
janB	DRSC16973	-0.4	-0.2		
CG30287	DRSC03875	-0.2	0		
CG14658	DRSC12244	-0.1	0.2		
Liprin-beta	DRSC09795	0	0.4		
Rtc1	DRSC20285	0.5	3		
RunxB	DRSC20395	-0.3	-0.3		
RunxB	DRSC20525	-0.1	0		
RunxB	DRSC20526	-0.9	-0.4		
CG9568	DRSC03265	-0.2	0.2	-0.3	0
Est-Q	DRSC11835	-0.3	-0.3		
Cyp18a1	DRSC20235	-0.6	0		
GstO1	DRSC10688	-0.2	-0.3		
